Data taken from PubChem BioAssay AID2685 (National Center for Advancing Translational Sciences (NCATS), 2010).
Some of the results follow. These are further read-outs of the screen, such as a control signal, another cell line or another target. No call is given for them. Compounds called inactive in the main read-out are mostly missing here. Words in brackets tell the shape of the fitted curve; partial curves, single points and poor fits give uncertain potencies.

Assay: qHTS Assay for Lipid Storage Modulators in Drosophila S3 Cells;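 for cell number change: cells counted by Cell Tracker Red CMTPX staining in the red channel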
Conditions: BODIPY lipid droplet fluorescence, 18-24 h; for cell number change: measured here: cell count max response, cells fed with added oleic acid
Outline: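 Laser-scanning cytometry quantifies lipid droplet accumulation (500–530 nm total intensity; droplet/cell object ratio) in oleic acid-fed (400 uM added) Drosophila S3 cells treated with a concentration series. 20 uM Triacsin C defined 100% inhibition.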

[1] = measured here: cell number channel AC50, cells fed with added oleic acid
[2] = measured here: lipid fluorescence (Fed channel) AC50, cells fed with added oleic acid

| Structure (SMILES) | cell number change [%] | AC50 [1] | AC50 [2] |
| --- | --- | --- | --- |
| CC(NC(=O)/C(C#N)=C/c1ccc(Cl)c([N+](=O)[O-])c1)c1ccccc1 (stereo not given) | -31.1 | 0.651 µM [falling, full curve, poor fit] | 5.8 µM [falling, partial curve] |
| COc1cc2c(cc1O)CC[n+]1cc3c(OC)c(OC)ccc3cc1-2 | -17.3 |  | 4.61 µM [falling, full curve, poor fit] |
| Cc1ccc(NC(=O)CSc2nc3ccccc3c(=O)n2CC2CCCO2)cc1 (stereo not given) | 26.8 |  | 29.1 µM [rising, single point] |
| COc1ccc([C@H]2CC(=O)C=C(c3ccc(F)cc3OCc3ccccc3)C2)cc1 | -0.906 | 1.16 µM [falling, single point] | 1.16 µM [falling, single point] |
| COc1ccccc1NS(=O)(=O)c1cccc(C(=O)N(C)Cc2cccs2)c1 | 30.3 |  |  |
| Cc1ccsc1C(=O)Nc1ccc(O)c(-c2nc3ccccc3s2)c1 | 19.8 | 0.82 µM [falling, single point] |  |
| Cc1sc2nc(C3CC3)nc(NCCNS(C)(=O)=O)c2c1C | -6.03 |  | 0.116 µM [rising, full curve, poor fit] |
| O=C(NCc1ccc(Cl)cc1)c1cc(=O)[nH]c2ccccc12 | 27.6 | 0.0517 µM [rising, full curve, poor fit] | 29.1 µM [rising, single point] |
| Cc1cc(C)c2oc(C(=O)NCCc3ccc(S(N)(=O)=O)cc3)cc(=O)c2c1 |  |  | 18.4 µM [rising, single point] |
| Cc1cccc(NC(=O)CCOc2ccccc2)c1 | -48.6 | 0.82 µM [falling, full curve] | 0.411 µM [rising, full curve, poor fit] |
| Cc1ccc(NC(=O)C2CCCN(C(=O)NCc3ccccc3)C2)c(C)c1 (stereo not given) | 24.6 |  |  |
| CCOc1ccc(NC(=O)/C(C#N)=C/c2cn(CC(=O)O)c3ccccc23)cc1 | -33 | 2.31 µM [falling, full curve, poor fit] |  |
| CCCCN1C(Nc2ccccc2)=NC[C@@H]1CC(C)C | -23.1 |  | 0.184 µM [rising, full curve] |
| COc1ccc(COc2ccc(C3C(S(=O)(=O)c4ccccc4)CON3C)cc2OC)cc1 (stereo not given) | -19.4 |  | 25.9 µM [falling, single point] |
| Nc1c(C(=O)NCCc2ccc(Cl)cc2)sc2ccc(S(=O)(=O)N3CCCCC3)cc12 | -14.5 |  | 29.1 µM [falling, single point] |
| C[C@]12CCC(=O)C=C1CC[C@@H]1[C@@H]2CC[C@@]2(C)[C@H]1CC[C@]2(O)C(=O)CO | 0.0967 |  |  |
| O=C(CNS(=O)(=O)c1ccc(Br)s1)N1CCN(c2ccc(F)cc2)CC1 | 10.4 |  |  |
| CCOc1ccc(C(=O)Nc2cc(-c3nc4ccccc4[nH]3)ccc2C)cc1[N+](=O)[O-] | -24.4 |  |  |
| CCn1c(-c2ccccc2Cl)nn(CC(=O)Nc2ccccc2C)c1=S | 12.6 | 2.91 µM [rising, single point] | 6.51 µM [rising, single point] |
| CCOC(=O)c1sc(N2C(=O)C(O)=C(C(=O)c3ccco3)C2c2ccc(C)o2)nc1C (stereo not given) | 21.7 |  | 6.51 µM [rising, single point] |

| Structure (SMILES) | cell number change [%] | AC50 [1] | AC50 [2] |
| --- | --- | --- | --- |
| Cc1sc2ncnc(N/N=C/c3ccc(O)cc3)c2c1C |  |  | 11.6 µM [falling, partial curve, poor fit] |
| O=C1NC(=O)/C(=C\c2ccc(Br)o2)S1 | -31.9 |  |  |
| O=C(CNS(=O)(=O)c1c(Cl)cccc1Cl)OCc1csc(-c2ccccc2)n1 | 7.83 |  | 16.4 µM [rising, partial curve] |
| CCC(C)/C(C)=N/Nc1ccc(S(N)(=O)=O)cc1[N+](=O)[O-] (stereo not given) | 10 |  |  |
| Cc1ccccc1NC(=S)N/N=C/C(C)c1ccccc1 (stereo not given) | 28.9 |  |  |
| O=S(=O)(c1cccc(-n2cnnn2)c1)N1CCOCC1 | -12.9 |  | 13 µM [falling, partial curve] |
| O=C(C[N+]1(CC#Cc2ccccc2)CCOCC1)c1ccccc1 | 134 | 23.1 µM [rising, single point] |  |
| C[n+]1cccc(C(=O)NNC(=O)C23CC4CC(CC(C4)C2)C3)c1 | -0.223 | 3.66 µM [falling, single point] | 6.51 µM [falling, single point] |
| COC(=O)C(=C/C=C/c1cccnc1)C(=O)OC | -14.8 |  | 29.1 µM [falling, single point] |
| O=C(Nc1cccc(S(=O)(=O)NC2=NCCCCC2)c1)c1cc(-c2ccccc2Cl)nc2ccccc12 | -21.2 |  |  |
| COC(=O)c1cccc(NC(=O)CN(c2ccc3c(c2)OCO3)S(C)(=O)=O)c1C | -22.5 |  | 0.146 µM [rising, full curve, poor fit] |
| Oc1ccccc1CNc1cnc2ccccc2c1 | -30 |  | 23.1 µM [falling, single point] |
| CN(Cc1ccccc1)C(NC(=O)c1ccco1)C(Cl)(Cl)Cl (stereo not given) | -5.81 | 0.00461 µM [falling, full curve, poor fit] |  |
| CCOC(=O)C1CCCN(S(=O)(=O)CCNC(=O)c2ccc(F)cc2)C1 (stereo not given) | -37.5 | 0.0731 µM [falling, full curve, poor fit] | 0.58 µM [falling, single point] |
| COc1ccc(S(=O)(=O)Nc2ccccc2C(=O)NCc2ccco2)cc1 | 60.3 | 29.1 µM [rising, single point] | 0.517 µM [falling, single point] |
| CCOC(=O)N1CCN(C(=O)c2ccc(N(Cc3ccc(C)cc3)S(C)(=O)=O)cc2)CC1 | 33.1 | 6.51 µM [rising, partial curve, poor fit] | 3.66 µM [rising, single point] |
| Cn1c2cc(Br)sc2c2cnn(Cc3c(F)cccc3F)c(=O)c21 | 41.8 | 0.00411 µM [rising, full curve, poor fit] | 0.0517 µM [rising, full curve] |
| Cc1ccc(N(C)C(=O)N2CCN(S(=O)(=O)c3ccc(C)c(C)c3)CC2)cc1 |  |  | 3.66 µM [rising, partial curve] |
| COc1ccc(C(=O)NC2CC2)cc1OC1CCN(Cc2ccc(F)cc2F)CC1 | -17.8 | 0.326 µM [rising, single point] |  |
| O=C(CCCCn1c(=O)[nH]c2ccccc2c1=O)NCCc1c[nH]c2ccccc12 | 8.78 |  | 0.731 µM [rising, full curve, poor fit] |

Structural class: the entries above with a nitro group on carbon (3)

| Structure (SMILES) | cell number change [%] | AC50 [1] | AC50 [2] |
| --- | --- | --- | --- |
| CC(NC(=O)/C(C#N)=C/c1ccc(Cl)c([N+](=O)[O-])c1)c1ccccc1 (stereo not given) | -31.1 | 0.651 µM [falling, full curve, poor fit] | 5.8 µM [falling, partial curve] |
| CCOc1ccc(C(=O)Nc2cc(-c3nc4ccccc4[nH]3)ccc2C)cc1[N+](=O)[O-] | -24.4 |  |  |
| CCC(C)/C(C)=N/Nc1ccc(S(N)(=O)=O)cc1[N+](=O)[O-] (stereo not given) | 10 |  |  |

Further structures.

| Structure (SMILES) | cell number change [%] | AC50 [1] | AC50 [2] |
| --- | --- | --- | --- |
| O=C(NC(=S)Nc1ccc(Cc2ccncc2)cc1)c1ccccc1 | 9.36 |  | 3.26 µM [rising, full curve] |
| Cc1cc(C(=O)NCCCc2ccccc2)no1 | 0.703 |  | 10.3 µM [rising, partial curve] |
| CC1(C)Oc2ccc(C(=O)N3CCc4ccccc43)cc2N(CC(=O)N2CCCC2)C1=O | 30.1 | 5.8 µM [rising, full curve, poor fit] |  |
| N#CC1(NC(=O)CN2C(=O)NC(c3ccccc3)(c3ccccc3)C2=O)CCCC1 | -8.27 |  | 29.1 µM [rising, single point] |
| COCCNC(=O)c1ccc2c3n(nc2c1)-c1ccc(Cl)cc1CO3 | 14.8 |  | 0.517 µM [rising, full curve, poor fit] |
| Cc1ccc(S(=O)(=O)NCc2ccccc2)cc1 | -28.8 |  | 6.51 µM [falling, single point] |
| COc1ccc2[nH]c(=O)c(CN(Cc3nnnn3Cc3ccc(F)cc3)CC3CCCO3)cc2c1 (stereo not given) | 9.93 |  | 6.51 µM [rising, single point] |
| CC(C)c1ccc(C2(C)NC(=O)N(CC(=O)NC3(C#N)CCCC3)C2=O)cc1 (stereo not given) | -4.13 |  | 0.206 µM [falling, partial curve, poor fit] |
| CN(C(=O)c1ccc(NC(=O)Cc2ccc(NC(=O)C3CCCN(C(=O)C4CCCC4)C3)cc2)cc1)C1CC1 (stereo not given) | -22 |  | 0.00461 µM [rising, full curve, poor fit] |
| O=C(Nc1cc([N+](=O)[O-])ccc1F)c1cccs1 | 20.9 |  | 20.6 µM [rising, partial curve, poor fit] |
| Cc1ccc(-c2nc3ccccc3s2)cc1NC(=S)NC(=O)/C=C/c1ccco1 | 9.76 | 3.66 µM [falling, single point] |  |
| CC(C)c1ccc(NNC(=O)C2CCC2)cc1 | 26.3 | 0.82 µM [falling, single point] |  |
| Nc1cc(N2CCOCC2)c(Cl)cc1[N+](=O)[O-] | -21.1 |  | 4.61 µM [rising, single point] |
| COc1ccc(S(=O)(=O)N(C)CC(=O)NC2CC2)cc1 | -5.54 |  | 2.59 µM [falling, full curve, poor fit] |
| CCC(Sc1nnc(C)c(=O)[nH]1)C(=O)Nc1cccc2ccccc12 (stereo not given) | 1.25 |  | 1.16 µM [falling, single point] |
| Cc1cc(C)nc(OC(=O)c2c(Cl)cc(Cl)cc2Cl)n1 |  |  | 18.4 µM [rising, partial curve] |
| O=C(CCC(=O)N1CCN(S(=O)(=O)c2ccccc2Cl)CC1)c1ccccc1 | 13.1 |  | 2.06 µM [rising, partial curve] |
| COC(=O)c1ccccc1NC(=O)CS(=O)(=O)Cc1nc(-c2ccc(C)cc2)oc1C | 10.8 |  | 6.51 µM [rising, partial curve, poor fit] |
| Cc1cc(NC(=O)c2cccnc2)ccc1NC(=O)c1cc2ccccc2o1 | 6.87 |  | 29.1 µM [rising, single point] |
